This assay has as its target EB1-mRFP (human EB1 with monomeric red fluorescent protein fused to the C-terminus through an RDP linker), expressed in rat ventricular myocytes by adenovirus (human) (UniProt Q15691). The assay is described as follows: co-IP; rat ventricular myocytes transduced with Adv-EB1-mRFP (and Adv-GFP-NaV1.5), 1% Triton lysis buffer; protein A/G magnetic beads with mCherry rabbit Ab at 4°C overnight; immunoblot with EB1 rat Ab. In general terms: In western blotting, separated proteins are transferred to a membrane and probed.

These are yes or no findings as the source states them, for the method shown. In cells and extracts the contact can be indirect. Some results given as binding are weak or reduced against the parent protein; the word gives no strength.

B1: native EB1 of rat ventricular myocytes (protein, UniProt Q66HR2 1-268)
chain: MAVNVYSTSVTSDNLSRHDMLAWINESLQLNLTKIEQLCSGAAYCQFMDMLFPGSIALKKVKFQAKLEHEYIQNFKILQAGFKRMGVDKIIPVDKLVKGKFQDNFEFVQWFKKFFDANYDGKEYDPVAARQGQETAVAPSLVAPALSKPKKPLGSGSAAPQRPIATQRTTAAPKAGPGMVRKNPGMGNGDDEAAELMQQVKVLKLTVEDLEKERDFYFGKLRNIELICQENEGENDPVLQRIVDILYATDEGFVIPDEGGPQEEQEEY
With B1, the binding result is “binds”.

Source of the values: PMC10791559.
